According to publication PMC5392987:
No constants are given. Whether binding was seen depends on the method and setting. Binding seen in cells or lysates may run through a third protein. A yes stands for co-enrichment or nearness to the bait. Other partners may have been found.

Amino acid sequences for entries named in this document (tags omitted). A change or cut given only in a name is not applied to a line headed by its entry.
UniProt Q9VNG2: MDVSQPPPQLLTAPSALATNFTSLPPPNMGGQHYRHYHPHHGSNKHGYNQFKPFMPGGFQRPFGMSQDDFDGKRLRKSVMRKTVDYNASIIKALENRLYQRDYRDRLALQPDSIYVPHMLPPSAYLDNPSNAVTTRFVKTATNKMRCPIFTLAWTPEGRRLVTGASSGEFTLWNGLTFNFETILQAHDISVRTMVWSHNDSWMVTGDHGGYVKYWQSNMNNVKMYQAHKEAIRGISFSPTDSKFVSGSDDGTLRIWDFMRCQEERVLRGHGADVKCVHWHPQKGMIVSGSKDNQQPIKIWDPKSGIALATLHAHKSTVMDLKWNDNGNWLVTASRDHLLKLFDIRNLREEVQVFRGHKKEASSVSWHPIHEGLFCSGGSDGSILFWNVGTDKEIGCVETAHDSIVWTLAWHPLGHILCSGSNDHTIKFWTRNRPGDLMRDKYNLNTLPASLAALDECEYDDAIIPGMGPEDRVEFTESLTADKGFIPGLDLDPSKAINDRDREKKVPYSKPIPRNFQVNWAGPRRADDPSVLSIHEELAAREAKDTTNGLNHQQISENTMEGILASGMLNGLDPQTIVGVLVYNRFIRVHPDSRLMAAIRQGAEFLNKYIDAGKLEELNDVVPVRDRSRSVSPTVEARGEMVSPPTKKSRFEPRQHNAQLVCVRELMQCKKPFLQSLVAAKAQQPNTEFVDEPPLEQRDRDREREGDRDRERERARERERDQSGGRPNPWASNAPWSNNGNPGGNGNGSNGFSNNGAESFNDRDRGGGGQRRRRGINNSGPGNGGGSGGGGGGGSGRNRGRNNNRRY

Each substance was assayed against T1, Symplekin (endogenous) (Drosophila melanogaster (endogenous in Dmel-2 cells)) (UniProt Q8MSU4) (assay: affinity purification with mass spectrometry; endogenous Symplekin immunoprecipitated from crude Drosophila culture cell nuclear extract; bands cut from a Coomassie-stained SDS-PAGE gel and identified by MS; anti-Myc as control).
T1 sequence: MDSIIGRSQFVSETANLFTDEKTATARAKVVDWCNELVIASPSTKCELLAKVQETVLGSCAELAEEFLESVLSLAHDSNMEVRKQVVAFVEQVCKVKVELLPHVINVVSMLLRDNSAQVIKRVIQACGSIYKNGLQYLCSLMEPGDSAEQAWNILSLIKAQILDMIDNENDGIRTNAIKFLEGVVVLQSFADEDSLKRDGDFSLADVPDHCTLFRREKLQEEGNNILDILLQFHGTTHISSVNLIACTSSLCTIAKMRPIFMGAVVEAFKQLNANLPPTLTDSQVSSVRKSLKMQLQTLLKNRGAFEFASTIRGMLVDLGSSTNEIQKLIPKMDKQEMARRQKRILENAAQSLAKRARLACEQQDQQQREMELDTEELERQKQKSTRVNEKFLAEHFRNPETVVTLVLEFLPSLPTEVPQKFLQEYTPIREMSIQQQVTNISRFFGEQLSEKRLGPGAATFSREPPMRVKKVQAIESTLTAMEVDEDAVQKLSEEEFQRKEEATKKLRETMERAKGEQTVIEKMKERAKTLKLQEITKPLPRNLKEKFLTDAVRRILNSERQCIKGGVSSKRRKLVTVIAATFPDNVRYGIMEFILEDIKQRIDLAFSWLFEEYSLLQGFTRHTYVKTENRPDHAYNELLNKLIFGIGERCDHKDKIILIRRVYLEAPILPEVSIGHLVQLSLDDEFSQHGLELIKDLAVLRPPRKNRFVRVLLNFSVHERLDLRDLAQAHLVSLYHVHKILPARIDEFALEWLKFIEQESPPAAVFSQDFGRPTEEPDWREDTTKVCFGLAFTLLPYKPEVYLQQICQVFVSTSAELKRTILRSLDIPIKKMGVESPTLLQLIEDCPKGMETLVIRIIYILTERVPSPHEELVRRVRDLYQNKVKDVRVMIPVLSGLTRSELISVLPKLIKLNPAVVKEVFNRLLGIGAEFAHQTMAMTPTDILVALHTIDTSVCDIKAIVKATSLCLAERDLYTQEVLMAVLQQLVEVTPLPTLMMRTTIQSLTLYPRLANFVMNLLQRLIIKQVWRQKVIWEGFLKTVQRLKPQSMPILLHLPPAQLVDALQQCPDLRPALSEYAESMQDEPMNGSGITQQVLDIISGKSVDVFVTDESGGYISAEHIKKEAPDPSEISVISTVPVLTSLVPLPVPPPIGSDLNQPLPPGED

Row | binding | Substance
1 | binds | CstF77 (endogenous)
2 | binds | Hsc70 (endogenous)
3 | binds | WDR33 (CG1109) (endogenous) (from UniProt Q9VNG2)
